Assay results from the supplement of paper PMC12067093, “Discovery and optimisation of a covalent ligand for TRIM25 and its application to targeted protein ubiquitination” (Chemical Science, 2025).
The other results are listed elsewhere or left out.

Protein sequences, listed by entry. Tags and fused reporters are not part of them. Lines headed by an entry give the natural chain unless they say otherwise; changes in a name come on top.
UniProt P78527, whole entry, looked up: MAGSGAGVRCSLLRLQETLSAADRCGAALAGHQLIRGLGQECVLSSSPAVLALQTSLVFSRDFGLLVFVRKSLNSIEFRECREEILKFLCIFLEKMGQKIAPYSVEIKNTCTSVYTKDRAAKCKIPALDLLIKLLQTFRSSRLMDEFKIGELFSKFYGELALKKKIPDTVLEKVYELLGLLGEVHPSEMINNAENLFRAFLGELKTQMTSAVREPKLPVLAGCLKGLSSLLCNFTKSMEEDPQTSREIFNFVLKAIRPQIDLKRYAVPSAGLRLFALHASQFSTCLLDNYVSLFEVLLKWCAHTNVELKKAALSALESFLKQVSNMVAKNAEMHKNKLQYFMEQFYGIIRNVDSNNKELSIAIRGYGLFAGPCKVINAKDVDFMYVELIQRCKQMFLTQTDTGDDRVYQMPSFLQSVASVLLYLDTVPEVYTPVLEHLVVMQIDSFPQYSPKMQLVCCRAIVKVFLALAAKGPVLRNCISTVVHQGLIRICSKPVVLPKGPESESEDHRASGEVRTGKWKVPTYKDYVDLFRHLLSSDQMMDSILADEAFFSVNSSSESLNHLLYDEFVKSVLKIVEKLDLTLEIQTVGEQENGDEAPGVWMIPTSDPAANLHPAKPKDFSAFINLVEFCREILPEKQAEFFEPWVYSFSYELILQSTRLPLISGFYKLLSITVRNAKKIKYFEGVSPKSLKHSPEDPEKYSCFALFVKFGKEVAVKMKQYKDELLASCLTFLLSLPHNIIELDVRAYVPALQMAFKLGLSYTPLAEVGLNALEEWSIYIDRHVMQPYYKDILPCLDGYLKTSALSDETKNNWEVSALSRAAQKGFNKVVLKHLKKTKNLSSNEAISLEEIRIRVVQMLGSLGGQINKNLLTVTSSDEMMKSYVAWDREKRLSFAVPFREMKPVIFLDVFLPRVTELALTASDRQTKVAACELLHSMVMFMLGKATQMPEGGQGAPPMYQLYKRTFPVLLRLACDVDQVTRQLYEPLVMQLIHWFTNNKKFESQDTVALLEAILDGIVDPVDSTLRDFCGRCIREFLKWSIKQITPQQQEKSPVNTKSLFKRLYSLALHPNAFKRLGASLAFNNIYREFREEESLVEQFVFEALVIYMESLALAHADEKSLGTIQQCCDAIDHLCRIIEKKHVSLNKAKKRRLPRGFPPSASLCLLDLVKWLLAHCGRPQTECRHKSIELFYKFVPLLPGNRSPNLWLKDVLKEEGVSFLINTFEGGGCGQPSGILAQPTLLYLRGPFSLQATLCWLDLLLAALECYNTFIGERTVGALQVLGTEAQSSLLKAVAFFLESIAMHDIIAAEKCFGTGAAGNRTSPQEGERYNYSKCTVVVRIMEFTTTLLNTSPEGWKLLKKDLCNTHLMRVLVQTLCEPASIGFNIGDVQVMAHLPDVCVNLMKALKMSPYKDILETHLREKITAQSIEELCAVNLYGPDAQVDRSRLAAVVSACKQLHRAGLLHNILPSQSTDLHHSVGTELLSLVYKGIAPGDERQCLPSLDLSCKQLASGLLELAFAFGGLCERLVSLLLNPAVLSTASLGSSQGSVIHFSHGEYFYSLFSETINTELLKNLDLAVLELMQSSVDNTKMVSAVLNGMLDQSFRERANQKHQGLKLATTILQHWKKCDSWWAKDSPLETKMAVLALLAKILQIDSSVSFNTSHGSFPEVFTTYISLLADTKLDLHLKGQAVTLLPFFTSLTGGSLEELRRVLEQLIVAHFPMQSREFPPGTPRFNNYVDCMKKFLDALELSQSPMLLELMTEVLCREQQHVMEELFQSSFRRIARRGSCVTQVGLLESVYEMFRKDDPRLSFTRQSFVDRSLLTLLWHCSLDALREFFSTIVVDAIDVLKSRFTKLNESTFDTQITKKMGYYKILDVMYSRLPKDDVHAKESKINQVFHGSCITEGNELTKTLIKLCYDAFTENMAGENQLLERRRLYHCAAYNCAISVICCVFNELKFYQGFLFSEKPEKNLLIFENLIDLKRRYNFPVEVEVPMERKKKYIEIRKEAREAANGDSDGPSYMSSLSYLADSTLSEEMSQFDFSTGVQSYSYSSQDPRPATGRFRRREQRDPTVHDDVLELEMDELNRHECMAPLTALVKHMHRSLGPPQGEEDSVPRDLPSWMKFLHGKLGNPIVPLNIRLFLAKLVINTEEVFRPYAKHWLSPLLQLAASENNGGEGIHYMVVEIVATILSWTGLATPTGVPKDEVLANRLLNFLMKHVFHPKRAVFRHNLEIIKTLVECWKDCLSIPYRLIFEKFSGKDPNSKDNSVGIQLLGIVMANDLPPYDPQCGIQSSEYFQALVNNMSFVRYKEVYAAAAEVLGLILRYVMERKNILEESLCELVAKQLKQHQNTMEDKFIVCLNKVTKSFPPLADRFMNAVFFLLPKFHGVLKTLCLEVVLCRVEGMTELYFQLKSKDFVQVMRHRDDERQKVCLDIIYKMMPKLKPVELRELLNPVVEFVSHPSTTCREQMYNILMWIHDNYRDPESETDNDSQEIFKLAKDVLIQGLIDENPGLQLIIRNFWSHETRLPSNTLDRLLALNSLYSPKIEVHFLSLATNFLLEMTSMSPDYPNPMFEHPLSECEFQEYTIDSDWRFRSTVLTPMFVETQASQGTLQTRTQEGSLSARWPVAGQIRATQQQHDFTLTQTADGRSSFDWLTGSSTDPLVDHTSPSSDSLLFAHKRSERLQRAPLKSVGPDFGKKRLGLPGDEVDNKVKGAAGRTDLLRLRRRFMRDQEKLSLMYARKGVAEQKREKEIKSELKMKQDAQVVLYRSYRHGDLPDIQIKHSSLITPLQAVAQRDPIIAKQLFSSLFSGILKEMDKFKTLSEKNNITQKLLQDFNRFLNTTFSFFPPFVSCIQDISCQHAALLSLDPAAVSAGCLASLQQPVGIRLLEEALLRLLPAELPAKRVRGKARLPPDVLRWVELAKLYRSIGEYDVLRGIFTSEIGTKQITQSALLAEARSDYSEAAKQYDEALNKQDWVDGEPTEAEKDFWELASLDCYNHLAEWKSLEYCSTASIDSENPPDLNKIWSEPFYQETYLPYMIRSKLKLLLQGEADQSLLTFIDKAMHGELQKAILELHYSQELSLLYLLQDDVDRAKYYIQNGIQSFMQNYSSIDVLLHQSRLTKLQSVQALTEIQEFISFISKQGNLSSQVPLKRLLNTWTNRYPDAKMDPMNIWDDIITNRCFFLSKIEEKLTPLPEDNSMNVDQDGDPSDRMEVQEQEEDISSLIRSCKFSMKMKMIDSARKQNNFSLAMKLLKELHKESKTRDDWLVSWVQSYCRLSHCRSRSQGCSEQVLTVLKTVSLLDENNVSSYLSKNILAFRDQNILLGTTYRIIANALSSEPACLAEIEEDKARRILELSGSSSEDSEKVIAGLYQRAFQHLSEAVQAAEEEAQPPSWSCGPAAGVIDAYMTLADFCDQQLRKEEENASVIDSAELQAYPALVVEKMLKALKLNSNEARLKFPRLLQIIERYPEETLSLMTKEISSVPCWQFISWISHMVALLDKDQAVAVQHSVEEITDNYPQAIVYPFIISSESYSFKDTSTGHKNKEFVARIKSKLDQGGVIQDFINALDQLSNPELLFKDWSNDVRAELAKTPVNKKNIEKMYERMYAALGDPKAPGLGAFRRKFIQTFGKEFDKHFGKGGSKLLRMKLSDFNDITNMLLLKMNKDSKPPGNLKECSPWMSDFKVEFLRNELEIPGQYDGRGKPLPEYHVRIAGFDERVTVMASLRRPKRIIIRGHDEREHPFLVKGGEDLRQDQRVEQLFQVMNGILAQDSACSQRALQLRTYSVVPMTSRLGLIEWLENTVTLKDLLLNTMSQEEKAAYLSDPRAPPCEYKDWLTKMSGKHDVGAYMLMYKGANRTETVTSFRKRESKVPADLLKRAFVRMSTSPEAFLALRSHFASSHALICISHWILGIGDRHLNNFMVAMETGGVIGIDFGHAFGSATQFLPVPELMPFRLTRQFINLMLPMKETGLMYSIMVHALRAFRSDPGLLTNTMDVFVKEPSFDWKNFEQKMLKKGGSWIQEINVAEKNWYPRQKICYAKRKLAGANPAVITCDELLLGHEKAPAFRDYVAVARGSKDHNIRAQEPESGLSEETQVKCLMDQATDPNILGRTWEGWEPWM
UniProt P11908: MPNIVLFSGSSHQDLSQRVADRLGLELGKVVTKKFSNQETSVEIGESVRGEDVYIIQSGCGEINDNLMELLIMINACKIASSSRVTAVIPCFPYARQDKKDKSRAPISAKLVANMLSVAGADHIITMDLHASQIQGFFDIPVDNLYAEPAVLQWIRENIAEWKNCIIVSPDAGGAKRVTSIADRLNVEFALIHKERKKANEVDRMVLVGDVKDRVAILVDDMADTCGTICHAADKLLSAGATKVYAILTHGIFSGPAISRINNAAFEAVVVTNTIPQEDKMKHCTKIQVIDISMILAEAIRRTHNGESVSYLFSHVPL
UniProt O94906: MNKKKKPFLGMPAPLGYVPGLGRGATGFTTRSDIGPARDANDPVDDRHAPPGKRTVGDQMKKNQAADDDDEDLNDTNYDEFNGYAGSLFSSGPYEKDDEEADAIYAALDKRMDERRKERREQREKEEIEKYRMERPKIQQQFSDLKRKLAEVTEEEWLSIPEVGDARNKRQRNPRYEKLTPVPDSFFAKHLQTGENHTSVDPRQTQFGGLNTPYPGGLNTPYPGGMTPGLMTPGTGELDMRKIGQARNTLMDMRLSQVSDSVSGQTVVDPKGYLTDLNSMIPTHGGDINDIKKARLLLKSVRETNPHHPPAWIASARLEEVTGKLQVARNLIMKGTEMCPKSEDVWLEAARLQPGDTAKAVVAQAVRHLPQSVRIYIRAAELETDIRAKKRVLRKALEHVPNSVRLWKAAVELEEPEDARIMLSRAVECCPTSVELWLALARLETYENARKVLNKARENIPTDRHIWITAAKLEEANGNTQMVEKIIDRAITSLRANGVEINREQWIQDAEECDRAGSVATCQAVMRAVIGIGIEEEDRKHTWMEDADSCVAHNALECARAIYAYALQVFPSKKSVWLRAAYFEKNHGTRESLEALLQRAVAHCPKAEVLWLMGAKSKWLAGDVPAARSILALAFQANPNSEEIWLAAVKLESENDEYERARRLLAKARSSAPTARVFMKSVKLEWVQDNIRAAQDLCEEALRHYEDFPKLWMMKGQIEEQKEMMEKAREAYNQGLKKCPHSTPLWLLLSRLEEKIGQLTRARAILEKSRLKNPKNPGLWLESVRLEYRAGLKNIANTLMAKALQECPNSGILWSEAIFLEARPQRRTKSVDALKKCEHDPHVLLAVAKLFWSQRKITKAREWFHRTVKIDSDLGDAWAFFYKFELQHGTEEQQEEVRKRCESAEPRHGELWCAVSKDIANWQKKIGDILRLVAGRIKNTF
UniProt O60678: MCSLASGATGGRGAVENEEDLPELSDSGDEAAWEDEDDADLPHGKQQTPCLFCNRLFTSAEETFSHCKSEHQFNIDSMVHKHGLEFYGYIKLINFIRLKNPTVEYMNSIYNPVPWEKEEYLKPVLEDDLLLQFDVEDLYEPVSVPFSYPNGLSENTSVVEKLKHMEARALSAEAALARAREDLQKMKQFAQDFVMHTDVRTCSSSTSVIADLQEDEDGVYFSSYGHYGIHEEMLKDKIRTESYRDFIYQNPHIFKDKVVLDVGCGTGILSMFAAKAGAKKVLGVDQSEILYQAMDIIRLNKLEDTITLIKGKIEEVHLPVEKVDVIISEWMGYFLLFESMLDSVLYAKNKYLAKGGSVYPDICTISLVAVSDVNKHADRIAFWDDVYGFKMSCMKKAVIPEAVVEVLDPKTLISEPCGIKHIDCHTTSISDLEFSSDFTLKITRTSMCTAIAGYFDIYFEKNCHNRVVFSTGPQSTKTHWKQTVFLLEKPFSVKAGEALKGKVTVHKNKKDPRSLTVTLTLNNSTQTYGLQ
UniProt O43172: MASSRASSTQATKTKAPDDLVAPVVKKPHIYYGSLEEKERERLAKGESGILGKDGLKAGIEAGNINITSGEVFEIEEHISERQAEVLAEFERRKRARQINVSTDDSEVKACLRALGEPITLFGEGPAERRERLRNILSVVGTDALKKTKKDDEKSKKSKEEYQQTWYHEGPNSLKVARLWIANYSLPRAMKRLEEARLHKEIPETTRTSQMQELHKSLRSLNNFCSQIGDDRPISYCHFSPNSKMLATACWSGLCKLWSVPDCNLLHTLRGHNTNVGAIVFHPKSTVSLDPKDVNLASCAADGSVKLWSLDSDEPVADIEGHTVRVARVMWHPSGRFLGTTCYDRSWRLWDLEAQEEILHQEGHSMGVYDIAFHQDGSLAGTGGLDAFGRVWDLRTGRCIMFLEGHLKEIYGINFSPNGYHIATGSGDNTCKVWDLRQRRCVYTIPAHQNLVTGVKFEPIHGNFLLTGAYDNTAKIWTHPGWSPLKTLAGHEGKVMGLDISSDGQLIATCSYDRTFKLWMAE

Compound: CC1Cc2ccccc2N1C(=O)C1CCCN(C1)C(=O)CCl (mixture of isomers) [TRIM25 ligand 11 (diastereomer mixture)]
Experiment: probe-labelled cysteine peptide fold change vs DMSO (competition) (log2 fold change); higher = less target engagement (more negative = stronger competition)
Conditions: THP-1, incubation time: 4 h
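Note: competitive chemoproteomic profiling in live THP-1 cells with an iodoacetamide desthiobiotin (IA-DTB) probe, comparing probe-labelled peptide intensities in compound-treated cells against DMSO-treated controls.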

| Target | probe-labelled cysteine peptide fold change (10 µM) | probe-labelled cysteine peptide fold change (50 µM) |
| --- | --- | --- |
| PRKCB_P05771_151_CVMNVPSLCGTDHTER (UniProt P05771) | 0.0617 | -0.156 |
| PRKCD_Q05655_393_DVVLIDDDVECTMVEKR (UniProt Q05655) | -0.374 | -0.174 |
| PRKDC_P78527_1364_KDLCNTHLMR (UniProt P78527) | -0.188 | -0.0544 |
| PRPS2_P11908_226_VAILVDDMADTCGTICHAADK (UniProt P11908) | -0.0518 | 0.0205 |
| PRR14L_Q5THK1_650_VESECVLNQQVSLNSQEHANLPTDSLLHLNK (UniProt Q5THK1) | -0.176 | -0.356 |
| PRPF6_O94906_739_KCPHSTPLWLLLSR (UniProt O94906) | -0.015 | -0.433 |
| PREX1_Q8TCU6_963_QAPLEPHPLCGLDFCPTNCHINLMEVSYPK (UniProt Q8TCU6) | 0.168 | -0.031 |
| PRMT3_O60678_67_LFTSAEETFSHCK (UniProt O60678) | 0.0629 | 0.0643 |
| PRPF4_O43172_263_LWSVPDCNLLHTLR (UniProt O43172) | 0.135 | 0.175 |
| PRKDC_P78527_1904_INQVFHGSCITEGNELTK (UniProt P78527) | 0.0709 | -0.162 |
| PRPF6_O94906_550+558_HTWMEDADSCVAHNALECAR (UniProt O94906) | -0.165 | -0.0822 |
| PRRC2C_Q9Y520_223_IACGPPQAK (UniProt Q9Y520) | -0.127 | -0.342 |
| PREX1_Q8TCU6_1583_LGACQMVMCGTGMQR (UniProt Q8TCU6) | 0.0674 | -0.0805 |
| PREX1_Q8TCU6_936_IACYQEFAAQLK (UniProt Q8TCU6) | 0.0577 | 0.0706 |
